Experimental data taken from publication PMC10110478.
Results are given in words; binding and its absence hold for the method and conditions named. Binding seen in cells or lysates may run through a third protein.

By UniProt entry, the sequences of proteins in these tests, tags left out.
UniProt P28482: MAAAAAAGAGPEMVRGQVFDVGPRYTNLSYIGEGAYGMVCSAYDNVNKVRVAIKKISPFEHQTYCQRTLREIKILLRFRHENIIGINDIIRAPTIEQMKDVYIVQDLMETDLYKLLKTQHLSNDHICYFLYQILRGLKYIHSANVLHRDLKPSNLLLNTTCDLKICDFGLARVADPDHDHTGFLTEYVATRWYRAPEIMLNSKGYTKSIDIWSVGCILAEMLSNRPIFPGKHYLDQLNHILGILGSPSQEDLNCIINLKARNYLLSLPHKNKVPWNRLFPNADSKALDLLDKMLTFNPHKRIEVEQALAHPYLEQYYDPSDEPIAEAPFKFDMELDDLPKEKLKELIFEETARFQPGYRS
UniProt P27361: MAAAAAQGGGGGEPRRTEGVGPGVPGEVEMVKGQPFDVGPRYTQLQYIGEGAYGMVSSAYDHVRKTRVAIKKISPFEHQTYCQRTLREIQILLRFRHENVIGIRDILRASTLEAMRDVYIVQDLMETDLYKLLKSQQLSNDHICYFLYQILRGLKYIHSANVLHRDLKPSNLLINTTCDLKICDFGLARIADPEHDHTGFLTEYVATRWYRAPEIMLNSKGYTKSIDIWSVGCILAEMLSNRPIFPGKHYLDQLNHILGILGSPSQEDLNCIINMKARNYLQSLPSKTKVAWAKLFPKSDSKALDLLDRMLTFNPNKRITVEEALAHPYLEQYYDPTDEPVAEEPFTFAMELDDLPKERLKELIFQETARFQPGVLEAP
UniProt Q8N6T7: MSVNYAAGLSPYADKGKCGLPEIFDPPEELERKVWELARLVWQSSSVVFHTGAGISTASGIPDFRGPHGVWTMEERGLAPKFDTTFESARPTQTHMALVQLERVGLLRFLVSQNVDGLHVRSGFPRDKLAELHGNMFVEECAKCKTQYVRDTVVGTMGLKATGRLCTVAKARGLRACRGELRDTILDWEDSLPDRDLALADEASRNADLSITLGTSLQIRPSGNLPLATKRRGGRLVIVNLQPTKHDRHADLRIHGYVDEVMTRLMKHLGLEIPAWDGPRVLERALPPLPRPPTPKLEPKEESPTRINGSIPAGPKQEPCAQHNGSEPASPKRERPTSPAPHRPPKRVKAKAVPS

Experiments:
[1] = biological target: extracellular signal-regulated kinase 2 (ERK2) (human (endogenous in A549)) (UniProt P28482); assay: co-IP; lysate of SIRT6-knockdown A549 cells; protein A/G magnetic beads with anti-ERK1/2 antibody or normal rabbit IgG, overnight at 4 °C; lysis buffer 50 mM Tris pH 7.5, 150 mM NaCl, 5 mM EDTA, 5 mM EGTA, 1% NP40; western blot
[2] = biological target: extracellular signal-regulated kinase 1 (ERK1) (human (endogenous in A549)) (UniProt P27361); assay: as above
[3] = biological target: Sirtuin6 (SIRT6), overexpressed from plasmid in A549 cells (UniProt Q8N6T7); assay: co-IP; lysate of SIRT6-overexpression A549 cells; protein A/G magnetic beads with anti-SIRT6 antibody or normal rabbit IgG, overnight at 4 °C; lysis buffer 50 mM Tris pH 7.5, 150 mM NaCl, 5 mM EDTA, 5 mM EGTA, 1% NP40; western blot

binding [1]	binding [2]	binding [3]	Substance
no binding	no binding		Sirtuin6 (SIRT6), endogenous in A549 cells (from UniProt Q8N6T7 1-355) (enzyme)
		no binding	extracellular signal-regulated kinase 1 (ERK1) (from UniProt P27361 1-379) (enzyme)
		no binding	extracellular signal-regulated kinase 2 (ERK2) (from UniProt P28482 1-360) (enzyme)
